Measured values: article PMC10296415, “Methyl-Thiol-Bridged Oxadiazole and Triazole Heterocycles as Inhibitors of NF-κB in Chronic Myelogenous Leukemia Cells” (Biomedicines, 2023)

Test system: MCF-7 cell line
Assay: MTT cell viability assay, MCF-7
Assay type: cell-based
Settings: Homo sapiens, MCF7, viability of MCF-7 cell line
Protocol: MCF-7 cells were purchased from Procell Life Science and Technology Co., Ltd., Wuhan, China, and cultured in MEM or Leibovitz’s L-15 medium containing 2% FBS. MCF-7 cells were maintained in a 5% CO2-humidified atmosphere at 37 °C. KCL22, LAMA84, and K562 cells were obtained from the American Type Culture Collection (Manassas, VA, USA). The KBM5 cell line was previously provided by Dr. Bharat Aggarwal (University of Texas M.D. Anderson Cancer Center, Houston, TX, USA). KBM5 cells were cultured in IMDM medium with 10% inactivated FBS and 1% penicillin-streptomycin. KCL22, LAMA84, and K562 cells were cultured in RPMI with 10% FBS and 1% penicillin-streptomycin antibiotics and maintained at 37 °C in a 5% CO2 chamber.
Cells (1 × 10^4 cells/well) were seeded on a 96-well plate and treated with 4c (0, 5, 10, 15, 30, 50 µM) for 24 h. After 24 h of treatment, 30 µL of MTT solution (2 mg/mL) for 2 h, followed by MTT lysis overnight. Cell viability was analyzed by measuring the absorbance of lysed MTT crystals using VARIOSKAN LUX (Thermo Fisher Scientific Inc., Waltham, MA, USA) at 570 nm.

In the case of `CC/C(=C(\c1ccccc1)c1ccc(OCCN(C)C)cc1)c1ccccc1` [Tamoxifen, reference compound], the IC50 is reported as 1.45 ± 0.16 µM.
